Results are given in words; binding and its absence hold for the method and conditions named. Binding seen in cells or lysates may run through a third protein. Some results given as binding are weak or reduced against the parent protein; the word gives no strength. Tags and fused reporters may be left off the sequences shown.

Sequences of proteins named here, by UniProt entry; tags and fusion partners are left off.
UniProt P35222: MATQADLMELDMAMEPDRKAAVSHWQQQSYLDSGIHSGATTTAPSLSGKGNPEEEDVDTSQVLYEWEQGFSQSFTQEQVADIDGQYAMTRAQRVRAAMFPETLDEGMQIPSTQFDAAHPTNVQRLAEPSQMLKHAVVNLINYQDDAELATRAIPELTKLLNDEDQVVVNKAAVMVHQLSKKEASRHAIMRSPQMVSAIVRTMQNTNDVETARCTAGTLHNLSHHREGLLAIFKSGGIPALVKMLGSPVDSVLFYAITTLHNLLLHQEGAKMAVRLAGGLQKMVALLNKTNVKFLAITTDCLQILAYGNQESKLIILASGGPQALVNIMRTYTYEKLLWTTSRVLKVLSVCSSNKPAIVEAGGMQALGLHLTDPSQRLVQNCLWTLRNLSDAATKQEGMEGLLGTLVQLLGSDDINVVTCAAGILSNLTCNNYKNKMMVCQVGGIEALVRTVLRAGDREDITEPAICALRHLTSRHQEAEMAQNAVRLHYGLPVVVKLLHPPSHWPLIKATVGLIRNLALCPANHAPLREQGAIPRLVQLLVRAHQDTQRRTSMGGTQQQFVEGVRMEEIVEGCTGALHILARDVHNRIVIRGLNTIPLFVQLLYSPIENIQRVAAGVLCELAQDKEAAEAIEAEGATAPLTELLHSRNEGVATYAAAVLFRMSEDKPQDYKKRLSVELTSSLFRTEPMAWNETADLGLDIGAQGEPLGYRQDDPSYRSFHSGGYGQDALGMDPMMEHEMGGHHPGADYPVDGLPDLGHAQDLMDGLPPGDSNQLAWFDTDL

The results in this text go back to PMC12056308.

The target of the test is T1, EGFP-tagged CSNK1A1 wild type (casein kinase 1 isoform alpha) (human) (UniProt P48729).
T1 sequence: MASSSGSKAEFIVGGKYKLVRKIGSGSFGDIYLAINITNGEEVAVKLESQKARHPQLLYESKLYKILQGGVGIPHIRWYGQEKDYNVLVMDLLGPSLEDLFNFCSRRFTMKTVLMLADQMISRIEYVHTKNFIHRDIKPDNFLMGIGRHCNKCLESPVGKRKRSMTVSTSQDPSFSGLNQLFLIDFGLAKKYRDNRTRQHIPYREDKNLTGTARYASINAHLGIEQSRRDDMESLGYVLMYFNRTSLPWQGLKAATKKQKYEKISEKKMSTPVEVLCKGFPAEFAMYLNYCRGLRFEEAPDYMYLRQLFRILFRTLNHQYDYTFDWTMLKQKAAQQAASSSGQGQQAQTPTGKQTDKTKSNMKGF
Nature of the test: co-IP; HEK-293T co-transfected with EGFP-tagged CSNK1A1 and Flag-CTNNB1 plasmids for 48 h; NP-40 lysis; 500 μg lysate immunoprecipitated with 5 μg anti-EGFP antibody overnight at 4°C, protein A/G agarose 4 h, five RIPA washes; Western blot.

Consider “Flag-CTNNB1 (β-catenin) (from UniProt P35222 1-781)”, for which the binding result is “binds”.
